{"source": "PubChem BioAssay AID743454 (Peter MacCallum Cancer Centre, 2014)", "aim": "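Knock-downs lowering viability or raising caspase 3/7 activity in vorinostat-treated resistant cells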 (primary screen)", "cells": "human HCT116-VR colon cancer cells, selected for vorinostat resistance", "reagent": "siRNA pool against human genes, 40 nM siRNA pool", "time to read-out": "vorinostat for 24 h, read-out about 72 h after transfection", "treatment": "vorinostat at 2.5 µM final", "measured": "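Cell viability by CellTiter-Fluor and caspase 3/7 activity by luminescence, each scaled to mock wells per plate, duplicates averaged, then robust z-scored over all plates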", "reading the numbers": "viability robust z-score: higher = more viable cells than screen typical; caspase robust z-score: higher = more caspase 3/7 activity than screen typical", "call rule": "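a knock-down is a hit when classed RV1 or RV2 for lowered viability, or CA1 or CA2 for caspase activation; those lethal without drug were dropped; hits were retested singly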", "note": "In all, the deposit lists about 18,000 reagents; shown is an unselected part. 450 of them (2.5%) count as active. 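Single biological run; no consistent viability z cut-off exists, so the class columns, not z-scores, define the calls.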 A number with no mark means an inactive call."}
{"gene": "SPATA21", "viability hit class": "no change", "caspase hit class": "no change", "viability robust z-score": 0.88, "caspase robust z-score": 1.35}
{"gene": "ALG10", "viability hit class": "no change", "caspase hit class": "no change", "viability robust z-score": 0, "caspase robust z-score": -0.34}
{"gene": "SLC43A1", "viability hit class": "no change", "caspase hit class": "no change", "viability robust z-score": 1.61, "caspase robust z-score": 3.52}
{"gene": "DAO", "viability hit class": "no change", "caspase hit class": "no change", "viability robust z-score": -0.31, "caspase robust z-score": 2.33}
{"gene": "VCF1", "viability hit class": "no change", "caspase hit class": "no change", "viability robust z-score": -0.18, "caspase robust z-score": 0.01}
{"gene": "ITGB1BP2", "viability hit class": "no change (active)", "caspase hit class": "CA1 (caspase activation)", "viability robust z-score": 1.67, "caspase robust z-score": 5.13}
{"gene": "LARGE2", "viability hit class": "no change", "caspase hit class": "no change", "viability robust z-score": 0.99, "caspase robust z-score": 0.9}
{"gene": "PCYT1B", "viability hit class": "no change", "caspase hit class": "no change", "viability robust z-score": -0.44, "caspase robust z-score": -0.01}
{"gene": "KDM7A", "viability hit class": "no change", "caspase hit class": "no change", "viability robust z-score": -0.9, "caspase robust z-score": -0.76}
{"gene": "H2BC7", "viability hit class": "no change", "caspase hit class": "no change", "viability robust z-score": -0.18, "caspase robust z-score": 5.08}
{"gene": "CBX4", "viability hit class": "no change", "caspase hit class": "no change", "viability robust z-score": -2.36, "caspase robust z-score": 3.8}
{"gene": "CEND1", "viability hit class": "no change", "caspase hit class": "no change", "viability robust z-score": 1.47, "caspase robust z-score": -0.9}

A run of entries of the results above:
{"gene": "DAO", "viability hit class": "no change", "caspase hit class": "no change", "viability robust z-score": -0.31, "caspase robust z-score": 2.33}
{"gene": "VCF1", "viability hit class": "no change", "caspase hit class": "no change", "viability robust z-score": -0.18, "caspase robust z-score": 0.01}

More results:
{"gene": "PIGZ", "viability hit class": "no change", "caspase hit class": "no change", "viability robust z-score": -1.1, "caspase robust z-score": 2.64}
{"gene": "METTL26", "viability hit class": "no change", "caspase hit class": "no change", "viability robust z-score": -0.55, "caspase robust z-score": -0.12}
{"gene": "UBE3A", "viability hit class": "no change", "caspase hit class": "no change", "viability robust z-score": -1.85, "caspase robust z-score": 3.02}
{"gene": "FAM3D", "viability hit class": "no change", "caspase hit class": "no change", "viability robust z-score": 0.05, "caspase robust z-score": -1.02}
{"gene": "TSHZ1", "viability hit class": "no change", "caspase hit class": "no change", "viability robust z-score": 1.15, "caspase robust z-score": -0.24}
{"gene": "EMX2", "viability hit class": "no change", "caspase hit class": "no change", "viability robust z-score": -1.86, "caspase robust z-score": 1.36}
{"gene": "SLC6A19", "viability hit class": "no change", "caspase hit class": "no change", "viability robust z-score": 1.38, "caspase robust z-score": -0.24}
{"gene": "RNASE2", "viability hit class": "no change", "caspase hit class": "no change", "viability robust z-score": 0.89, "caspase robust z-score": 1.52}
{"gene": "ZNF304", "viability hit class": "no change", "caspase hit class": "no change", "viability robust z-score": 0.9, "caspase robust z-score": 0.06}
